The results in this text go back to patent US20170121405A1.

Sequences of proteins named here, by UniProt entry; tags and fusion partners are left off. Residues count along the entry.
UniProt P15328, residues 25-234: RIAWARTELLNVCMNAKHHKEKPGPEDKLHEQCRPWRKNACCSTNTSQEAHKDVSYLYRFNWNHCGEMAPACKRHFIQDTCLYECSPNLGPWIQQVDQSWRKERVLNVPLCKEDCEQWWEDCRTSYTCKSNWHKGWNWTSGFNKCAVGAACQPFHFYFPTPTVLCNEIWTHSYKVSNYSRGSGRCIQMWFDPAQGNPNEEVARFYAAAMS

Results are given in words; binding and its absence hold for the method and conditions named. Some results given as binding are weak or reduced against the parent protein; the word gives no strength.

The assay addresses Folate receptor alpha (UniProt P15328). The assay is described as follows: indirect IHC on FFPE tissue sections, 2.5 µg/ml 26B3, HRP-polymer detection.

B1: Monoclonal antibody 26B3 (antibody, V domains shown)
VH: GPELVKPGASVKISCKASDYSFTGYFMNWVMQSHGKSLEWIGRIFPYNGDTFYNQKFKGRATLTVDKSSSTAHMELRSLASEDSAVYFCARGTHYFDYWGQGTTLTVSS
VL: PASLSASVGETVTITCRTSENIFSYLAWYQQKQGISPQLLVYNAKTLAEGVPSRFSGSGSGTQFSLKINSLQPEDFGSYYCQHHYAFPWTFGGGSKLEIKR
Turning to B1, the binding entry is given as “binds”.
